Reference: paper PMC7687062
No constants are given. Whether binding was seen depends on the method and setting. Binding seen in cells or lysates may run through a third protein. Some entries that bind do so weakly or less than the wild type. For some assays here: Tags and fused reporters may be left off the sequences shown.

The chains behind the UniProt entries cited, without tags or fusion partners. Where a name states a change or a piece, a line headed by the entry shows the natural chain unless it says otherwise. Residues count along the entry.
UniProt P70211, residues 26-1447: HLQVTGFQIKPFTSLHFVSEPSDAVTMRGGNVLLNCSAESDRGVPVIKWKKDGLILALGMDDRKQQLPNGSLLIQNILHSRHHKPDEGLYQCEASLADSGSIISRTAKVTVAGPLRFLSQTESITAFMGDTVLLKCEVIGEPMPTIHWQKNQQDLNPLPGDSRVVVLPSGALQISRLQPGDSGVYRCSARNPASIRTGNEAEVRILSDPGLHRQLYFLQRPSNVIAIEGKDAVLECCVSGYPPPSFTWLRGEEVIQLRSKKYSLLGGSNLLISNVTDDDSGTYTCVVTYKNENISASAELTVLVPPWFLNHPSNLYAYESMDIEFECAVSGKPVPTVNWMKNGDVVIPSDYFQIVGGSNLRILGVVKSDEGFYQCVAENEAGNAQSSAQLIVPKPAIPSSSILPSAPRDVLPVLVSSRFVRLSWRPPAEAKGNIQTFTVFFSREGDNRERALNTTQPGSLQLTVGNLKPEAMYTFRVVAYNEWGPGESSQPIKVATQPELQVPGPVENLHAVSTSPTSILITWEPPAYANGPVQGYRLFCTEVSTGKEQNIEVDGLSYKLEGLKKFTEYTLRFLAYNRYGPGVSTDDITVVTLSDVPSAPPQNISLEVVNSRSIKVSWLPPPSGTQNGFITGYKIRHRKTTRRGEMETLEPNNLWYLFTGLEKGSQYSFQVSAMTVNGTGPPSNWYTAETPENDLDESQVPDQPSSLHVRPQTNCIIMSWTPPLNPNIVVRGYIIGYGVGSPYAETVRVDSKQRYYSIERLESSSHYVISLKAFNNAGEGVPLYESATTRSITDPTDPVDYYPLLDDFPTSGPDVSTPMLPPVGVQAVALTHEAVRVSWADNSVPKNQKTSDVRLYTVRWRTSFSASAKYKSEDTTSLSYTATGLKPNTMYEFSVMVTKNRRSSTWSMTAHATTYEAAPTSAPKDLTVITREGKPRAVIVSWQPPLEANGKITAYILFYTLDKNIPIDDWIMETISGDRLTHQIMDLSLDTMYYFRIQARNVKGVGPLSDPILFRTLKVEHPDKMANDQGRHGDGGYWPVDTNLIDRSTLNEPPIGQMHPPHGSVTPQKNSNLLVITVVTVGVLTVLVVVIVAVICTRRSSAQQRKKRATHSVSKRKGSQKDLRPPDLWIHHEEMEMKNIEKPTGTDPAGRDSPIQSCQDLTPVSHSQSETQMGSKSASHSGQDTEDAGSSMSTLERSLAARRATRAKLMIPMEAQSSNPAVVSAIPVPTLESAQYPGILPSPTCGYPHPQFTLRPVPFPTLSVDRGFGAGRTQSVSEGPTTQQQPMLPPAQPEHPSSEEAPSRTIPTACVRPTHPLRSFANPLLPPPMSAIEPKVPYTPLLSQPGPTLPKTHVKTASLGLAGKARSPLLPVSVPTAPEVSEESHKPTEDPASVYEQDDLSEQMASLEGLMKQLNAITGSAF
UniProt E9Q4K7: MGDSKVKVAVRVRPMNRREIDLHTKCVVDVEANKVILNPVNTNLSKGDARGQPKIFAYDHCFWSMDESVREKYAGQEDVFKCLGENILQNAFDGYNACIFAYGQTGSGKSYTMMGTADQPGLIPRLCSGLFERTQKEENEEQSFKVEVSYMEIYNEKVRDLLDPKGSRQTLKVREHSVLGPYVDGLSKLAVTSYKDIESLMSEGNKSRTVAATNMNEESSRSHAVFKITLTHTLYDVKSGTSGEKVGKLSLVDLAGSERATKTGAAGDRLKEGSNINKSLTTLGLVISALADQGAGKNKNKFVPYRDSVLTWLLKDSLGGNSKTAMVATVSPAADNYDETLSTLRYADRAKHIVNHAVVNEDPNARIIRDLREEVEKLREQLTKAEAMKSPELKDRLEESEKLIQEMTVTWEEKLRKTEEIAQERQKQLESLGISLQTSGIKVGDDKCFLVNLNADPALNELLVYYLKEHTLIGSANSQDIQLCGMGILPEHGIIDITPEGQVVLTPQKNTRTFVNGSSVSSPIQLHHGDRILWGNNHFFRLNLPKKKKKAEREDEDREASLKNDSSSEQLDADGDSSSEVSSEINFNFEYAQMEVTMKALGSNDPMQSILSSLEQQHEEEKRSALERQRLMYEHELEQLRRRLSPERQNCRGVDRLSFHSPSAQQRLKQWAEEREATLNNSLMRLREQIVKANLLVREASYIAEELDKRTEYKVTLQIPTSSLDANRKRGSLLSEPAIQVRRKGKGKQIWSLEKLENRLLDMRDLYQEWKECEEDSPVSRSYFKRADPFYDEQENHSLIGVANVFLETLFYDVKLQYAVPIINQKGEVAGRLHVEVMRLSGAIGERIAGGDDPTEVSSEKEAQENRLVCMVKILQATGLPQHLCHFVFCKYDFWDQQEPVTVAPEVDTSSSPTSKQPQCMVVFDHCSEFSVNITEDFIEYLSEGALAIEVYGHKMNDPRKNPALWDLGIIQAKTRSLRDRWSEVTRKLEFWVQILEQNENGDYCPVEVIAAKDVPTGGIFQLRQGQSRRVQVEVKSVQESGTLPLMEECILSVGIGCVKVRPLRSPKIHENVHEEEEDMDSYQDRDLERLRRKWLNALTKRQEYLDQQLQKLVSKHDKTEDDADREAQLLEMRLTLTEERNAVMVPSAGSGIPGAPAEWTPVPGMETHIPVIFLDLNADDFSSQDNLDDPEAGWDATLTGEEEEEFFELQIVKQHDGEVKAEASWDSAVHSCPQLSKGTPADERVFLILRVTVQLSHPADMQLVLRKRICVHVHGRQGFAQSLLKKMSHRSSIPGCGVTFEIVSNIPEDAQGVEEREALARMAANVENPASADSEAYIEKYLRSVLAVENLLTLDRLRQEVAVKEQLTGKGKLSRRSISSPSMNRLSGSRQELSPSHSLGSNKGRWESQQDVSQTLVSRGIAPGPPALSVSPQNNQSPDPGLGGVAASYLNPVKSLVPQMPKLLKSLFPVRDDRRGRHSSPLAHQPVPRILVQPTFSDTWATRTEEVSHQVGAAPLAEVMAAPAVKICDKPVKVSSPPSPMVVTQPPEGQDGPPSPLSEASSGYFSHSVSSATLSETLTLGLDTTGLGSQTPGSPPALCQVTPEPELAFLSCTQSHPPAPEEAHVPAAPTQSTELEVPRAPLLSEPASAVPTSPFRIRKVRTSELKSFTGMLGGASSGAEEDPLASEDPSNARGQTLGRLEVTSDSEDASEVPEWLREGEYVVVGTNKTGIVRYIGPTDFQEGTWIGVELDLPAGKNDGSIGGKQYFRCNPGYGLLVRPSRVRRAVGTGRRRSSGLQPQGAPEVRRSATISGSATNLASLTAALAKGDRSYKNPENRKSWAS

Assays:
[1] = target: Myosin X, endogenous in cultured cortical neurons (mouse (endogenous in cultured cortical neurons)) (UniProt F8VQB6); assay: co-IP; endogenous proteins in lysates of cultured mouse cortical neurons treated with vehicle or Netrin-1 (500 ng/ml, 1 h); precipitated with anti-Myo X antibody (said for Fig. 6G); modified RIPA lysis buffer, 4°C, immunoblot
[2] = target: T1, Myc-KIF13B^1532-1826 (human) (UniProt Q9NQT8); assay: co-IP; GFP-tagged Myo X constructs coexpressed with Myc-KIF13B or its deletion mutants in HEK293T cells; precipitated with anti-Myc antibody (IgG as control); modified RIPA lysis buffer, 4°C, immunoblot
T1 sequence: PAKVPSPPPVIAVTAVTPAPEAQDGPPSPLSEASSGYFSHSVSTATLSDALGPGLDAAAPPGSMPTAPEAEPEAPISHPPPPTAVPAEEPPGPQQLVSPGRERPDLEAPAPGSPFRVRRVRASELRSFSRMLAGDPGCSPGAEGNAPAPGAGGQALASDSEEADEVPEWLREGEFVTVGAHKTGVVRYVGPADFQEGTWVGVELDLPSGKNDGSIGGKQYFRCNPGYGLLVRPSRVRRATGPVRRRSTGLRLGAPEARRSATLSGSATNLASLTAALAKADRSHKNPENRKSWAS

[3] = target: T2, Myc-KIF13B^558-1826 (human) (UniProt Q9NQT8); assay: as above
T2 sequence: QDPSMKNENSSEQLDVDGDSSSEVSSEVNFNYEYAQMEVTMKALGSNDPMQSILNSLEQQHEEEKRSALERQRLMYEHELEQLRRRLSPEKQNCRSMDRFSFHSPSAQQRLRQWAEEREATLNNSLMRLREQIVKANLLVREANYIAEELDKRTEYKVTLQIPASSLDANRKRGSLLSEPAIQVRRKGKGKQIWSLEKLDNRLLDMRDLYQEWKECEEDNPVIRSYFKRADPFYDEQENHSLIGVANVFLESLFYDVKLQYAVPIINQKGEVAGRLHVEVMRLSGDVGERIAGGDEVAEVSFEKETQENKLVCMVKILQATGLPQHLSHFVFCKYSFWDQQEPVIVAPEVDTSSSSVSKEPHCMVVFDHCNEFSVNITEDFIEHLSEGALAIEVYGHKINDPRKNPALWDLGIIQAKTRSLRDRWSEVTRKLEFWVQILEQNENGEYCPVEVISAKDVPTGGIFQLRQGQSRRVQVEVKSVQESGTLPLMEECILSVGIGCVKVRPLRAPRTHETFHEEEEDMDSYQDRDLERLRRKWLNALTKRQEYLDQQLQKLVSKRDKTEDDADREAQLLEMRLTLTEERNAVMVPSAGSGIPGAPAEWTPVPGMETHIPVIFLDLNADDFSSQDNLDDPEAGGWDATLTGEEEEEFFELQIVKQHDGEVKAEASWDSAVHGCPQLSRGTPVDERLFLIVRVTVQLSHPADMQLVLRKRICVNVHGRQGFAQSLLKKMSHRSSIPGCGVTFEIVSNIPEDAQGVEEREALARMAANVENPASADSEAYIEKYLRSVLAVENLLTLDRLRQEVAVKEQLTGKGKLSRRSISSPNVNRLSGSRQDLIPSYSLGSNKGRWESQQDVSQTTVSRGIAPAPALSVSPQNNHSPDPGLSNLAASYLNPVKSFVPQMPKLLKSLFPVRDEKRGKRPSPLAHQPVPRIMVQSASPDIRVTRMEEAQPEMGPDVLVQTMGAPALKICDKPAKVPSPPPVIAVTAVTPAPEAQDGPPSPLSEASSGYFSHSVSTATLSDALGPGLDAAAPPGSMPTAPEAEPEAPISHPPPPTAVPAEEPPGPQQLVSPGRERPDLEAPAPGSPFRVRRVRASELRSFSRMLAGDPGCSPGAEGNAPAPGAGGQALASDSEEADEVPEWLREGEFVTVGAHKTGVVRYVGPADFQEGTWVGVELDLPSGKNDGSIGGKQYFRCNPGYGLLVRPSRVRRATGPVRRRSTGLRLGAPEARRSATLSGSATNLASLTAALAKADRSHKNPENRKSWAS

[4] = target: T3, Myc-KIF13B^990-1826 (human) (UniProt Q9NQT8); assay: as above
T3 sequence: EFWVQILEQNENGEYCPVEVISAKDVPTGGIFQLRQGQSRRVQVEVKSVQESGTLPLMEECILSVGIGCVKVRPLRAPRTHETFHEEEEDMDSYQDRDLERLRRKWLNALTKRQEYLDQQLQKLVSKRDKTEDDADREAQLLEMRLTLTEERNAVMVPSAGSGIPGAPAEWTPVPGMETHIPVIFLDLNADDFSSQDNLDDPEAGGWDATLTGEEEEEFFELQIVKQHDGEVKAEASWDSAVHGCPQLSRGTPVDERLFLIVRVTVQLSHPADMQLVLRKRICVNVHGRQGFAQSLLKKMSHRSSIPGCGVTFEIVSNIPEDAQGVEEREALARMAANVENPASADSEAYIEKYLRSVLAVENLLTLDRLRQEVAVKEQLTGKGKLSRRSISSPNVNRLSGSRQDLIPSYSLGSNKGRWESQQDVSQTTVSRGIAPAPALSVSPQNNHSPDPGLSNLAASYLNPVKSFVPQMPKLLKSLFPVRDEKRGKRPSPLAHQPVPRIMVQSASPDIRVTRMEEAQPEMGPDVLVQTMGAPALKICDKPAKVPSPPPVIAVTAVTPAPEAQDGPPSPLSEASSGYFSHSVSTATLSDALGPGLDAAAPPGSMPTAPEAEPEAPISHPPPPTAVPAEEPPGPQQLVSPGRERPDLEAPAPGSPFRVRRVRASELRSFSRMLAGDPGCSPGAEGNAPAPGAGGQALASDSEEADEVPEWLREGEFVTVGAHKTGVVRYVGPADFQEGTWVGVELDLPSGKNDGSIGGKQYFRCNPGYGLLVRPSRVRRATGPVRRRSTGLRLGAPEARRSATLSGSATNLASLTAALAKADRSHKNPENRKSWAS

[5] = target: T4, Myc-KIF13B^1-557 (human) (UniProt Q9NQT8); assay: as above
T4 sequence: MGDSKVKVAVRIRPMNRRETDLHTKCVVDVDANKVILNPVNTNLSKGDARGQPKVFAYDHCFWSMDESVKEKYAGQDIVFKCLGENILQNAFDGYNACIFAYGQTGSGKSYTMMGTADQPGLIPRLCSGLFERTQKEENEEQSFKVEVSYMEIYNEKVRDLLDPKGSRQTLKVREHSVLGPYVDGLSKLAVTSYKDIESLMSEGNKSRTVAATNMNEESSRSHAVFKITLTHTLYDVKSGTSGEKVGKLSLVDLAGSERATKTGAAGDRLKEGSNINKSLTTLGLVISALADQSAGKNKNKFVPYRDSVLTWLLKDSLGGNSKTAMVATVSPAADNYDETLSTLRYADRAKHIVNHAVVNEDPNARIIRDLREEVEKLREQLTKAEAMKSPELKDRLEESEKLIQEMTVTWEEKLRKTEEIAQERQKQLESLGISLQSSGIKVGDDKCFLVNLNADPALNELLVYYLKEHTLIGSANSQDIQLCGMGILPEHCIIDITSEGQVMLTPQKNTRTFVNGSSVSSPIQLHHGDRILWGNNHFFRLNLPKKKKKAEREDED

[6] = target: T5, GST-KIF13B^1532-1826 fusion protein (human) (UniProt Q9NQT8); assay: pull-down; GST fusion proteins (2-5 μg) immobilised on glutathione-Sepharose beads, incubated at 4°C overnight with lysates of transfected HEK293 cells (modified RIPA buffer, precleared with GST beads); immunoblot; only the target purified
T5 sequence: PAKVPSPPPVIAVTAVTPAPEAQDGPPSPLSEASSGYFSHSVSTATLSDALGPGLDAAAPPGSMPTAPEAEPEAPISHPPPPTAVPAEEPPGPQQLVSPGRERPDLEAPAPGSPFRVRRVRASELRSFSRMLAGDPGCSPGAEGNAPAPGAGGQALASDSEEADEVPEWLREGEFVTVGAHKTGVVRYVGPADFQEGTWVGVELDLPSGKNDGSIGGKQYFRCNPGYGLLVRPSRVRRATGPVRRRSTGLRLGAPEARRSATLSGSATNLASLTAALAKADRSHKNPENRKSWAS

## Deleted in Colorectal Cancer (DCC), endogenous in cultured cortical neurons (from UniProt P70211 26-1447) (receptor)
[1]
  binding: binds

## GFP-hMyoX (GFP-tagged headless MyoX), expressed in HEK293 cells (from UniProt F8VQB6 860-2062) (domain or fragment)
[2]
  binding: binds
[3]
  binding: binds
[4]
  binding: binds
[5]
  binding: no binding
[6]
  binding: binds

## GFP-hMyoX (KK1225/6AA) (from UniProt F8VQB6 860-2062) (domain or fragment)
[6]
  binding: binds

## GFP-hMyoX^ΔPH2 (from UniProt F8VQB6 860-2062) (domain or fragment)
[6]
  binding: no binding

## GFP-hMyoX^ΔPH3 (from UniProt F8VQB6 860-2062) (domain or fragment)
[6]
  binding: no binding

## KIF13B, endogenous in cultured cortical neurons (from UniProt E9Q4K7 1-1843)
[1]
  binding: binds

B1: GFP-Myo X^Ferm (domain or fragment, UniProt F8VQB6 1704-2048)
chain: MTSTVYCHGGGSCKITINSHTTAGEVVEKLIRGLAMEDSRNMFALFEYNGQVDKAIESRTIVADVLAKFEKLAATSEAGDAPWKFYFKLYCFLDTDSMPKDSVEFAFMFEQAHEAVIHGHHPAPEESLQVLAALRLQYLQGDYTPHTSIPPLEEVYSVQRLRARISQSTKTFTPYERLEKRRTSFLEGTLRRSFRTGSVVRQKAEEEQMLDMWIKEEVCSARTSIIDKWKKLQGMNQEQAMAKYMALIKEWPGYGSTLFDVECKEGGFPQELWLGVSADAVSVYKRGEGKPLEVFQYEHILSFGAPLANTYKIVVDERELLFETSEVVDVAKLMKAYISMIVKKR
[6]
  binding: no binding
